41 sequences from the supplement of paper PMC9233669 can be followed below.

Variants at the floor of the assay are shown more often than the library holds them.

Series [1] concerns biotinyl-Ile-oxazolone. Put plainly: self-aminoacylation, catalytic enhancement (BIO) (fold over background); higher = more active; k-Seq, kA / k0A0; sequences stand for … in GGGAAUGGAUCCACAUCUACGAAUUC…UUCACUGCAGACUUGACGAAGCUG
The method, boiled down: (§1)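 Mutagenized RNA pools with a 21-nt variable region (0.43 μM) were reacted with each biotinyl-aminoacyl-oxazolone at 2–1250 μM for 90 minutes at room temperature, in 50 μL HEPES/NaCl/KCl/MgCl2/CaCl2 buffer containing 5% acetonitrile at pH 6.9–7.0. RNA captured on streptavidin was quantified by triplicate qPCR and by Illumina sequencing. The fraction reacted for each sequence was fit to a pseudo-first-order model with bootstrapping, and catalytic enhancement is the median kA divided by the uncatalyzed rate, taken as the low-activity peak of a bimodal Gaussian fit.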

The subject of series [2] is biotinyl-Val-oxazolone. Kind of series: self-aminoacylation, catalytic enhancement (BVO) (fold over background); higher = more active; k-Seq, kA / k0A0; sequences stand for … in GGGAAUGGAUCCACAUCUACGAAUUC…UUCACUGCAGACUUGACGAAGCUG
An outline of the steps: as §1

For series [3], the system named is biotinyl-Met-oxazolone. Kind of series: self-aminoacylation, catalytic enhancement (BMO) (fold over background); higher = more active; k-Seq, kA / k0A0; sequences stand for … in GGGAAUGGAUCCACAUCUACGAAUUC…UUCACUGCAGACUUGACGAAGCUG
An outline of the steps: as §1

For “AUUACACUGGUCAUAGAGUGA [Fam2.1 aminoacylation ribozyme variant]”, the self-aminoacylation in series [1] was 1.98.

Consider “AUUUACCCAGGUCAUCGGGUG [Fam2.2 aminoacylation ribozyme variant]”, for which the figures for the self-aminoacylation in series [2] and in series [1] were 3.55 and 3.28, respectively.

With “AUUAGCCUGGUCACCGAGUGA [Fam2.1 aminoacylation ribozyme variant]”, the self-aminoacylation in series [2] was 4.65; in series [1], 4.14; in series [3], 8.98.

Regarding “CUACUUCAACCAAUAGGUCUG [Fam1A.1 aminoacylation ribozyme variant]”, the self-aminoacylation in series [2] came out at 0.777; in series [1] it was 0.947.

Turning to “CUGCUUCAAACAAUCGGCCUG [Fam1A.1 aminoacylation ribozyme variant]”, the self-aminoacylation turned out to be 3.35 in series [2] and 3.07 in series [1].

For “AUUACCCUGGUCUGCGAGUGA [Fam2.1 aminoacylation ribozyme variant]”, the values for the self-aminoacylation in series [2] and in series [1] were 1.41 and 1.66, respectively.

“AAGUUAGCCAAUAGUCGCAAG [Fam3.1 aminoacylation ribozyme variant]”: the self-aminoacylation in series [2] is 1.77.

For “AUUCACCUAGUUCAUAGGGUG [Fam2.2 aminoacylation ribozyme variant]”, the self-aminoacylation in series [2] turned out to be 1.78; in series [1] it was 1.95.

For the sequence “CCCCACUUCAAGCAAUCGGUA [Fam1B.1 aminoacylation ribozyme variant]”, the self-aminoacylation in series [2] was found to be 1.83; in series [1], 1.82; in series [3] it was 1.9.

With “AUAACCCUUGUCAUCGAGUGA [Fam2.1 aminoacylation ribozyme variant]”, the self-aminoacylation in series [2] was 3.13; in series [1], 3.29.

As for “AUCCACCUAGGACAUCGGGUG [Fam2.2 aminoacylation ribozyme variant]”, the self-aminoacylation is 3.38 in series [2] and 3.12 in series [1].

Regarding “AAGUUUGCUAAUAGUCGGAAG [Fam3.1 aminoacylation ribozyme variant]”, the results for the self-aminoacylation in series [2] and in series [1] were 1.03 and 1.13, respectively.

On to “CCACACUUCAACCAAUCGUUC [Fam1B.1 aminoacylation ribozyme variant]”, for which the values for the self-aminoacylation in series [2], in series [1] and in series [3] were 0.636, 0.674 and 0.634, respectively.

Consider “CCCCACUUCAACCAAUCGGUC [Fam1B.1 aminoacylation ribozyme variant]”, for which the figures for the self-aminoacylation in series [2] and in series [3] were 1.8 and 1.91, respectively.

In the case of “AGUACCCUGGUCAUCGUGUGA [Fam2.1 aminoacylation ribozyme variant]”, the self-aminoacylation in series [1] was found to be 1.94.

As to “CCAUUUCAAACAAUCGGUCUG [Fam1A.1 aminoacylation ribozyme variant]”, the self-aminoacylation in series [2] was found to be 1.04; in series [1], 1.03.

For the sequence “CUUACCCUGCUCAUCGAGUGA [Fam2.1 aminoacylation ribozyme variant]”, the self-aminoacylation in series [2] is 1.76; in series [1], 1.64.

For the sequence “AAGCUUGCUAAUAGUCGCAGG [Fam3.1 aminoacylation ribozyme variant]”, the self-aminoacylation worked out at 1.77 in series [2], 1.89 in series [1] and 1.87 in series [3].

Turning to “CCAGGCUUCAAGCAAUCGGUC [Fam1B.1 aminoacylation ribozyme variant]”, the self-aminoacylation is 1.47 in series [2], 1.24 in series [1] and 1.45 in series [3].

Turning to “CUACUUCGAACAAUCGGUCCG [Fam1A.1 aminoacylation ribozyme variant]”, the self-aminoacylation in series [2] was 0.738; in series [1], 0.879.

For “CCACACUUCAAGCAAUUGGUG [Fam1B.1 aminoacylation ribozyme variant]”, the self-aminoacylation in series [2] is 1.96.

On to “AAUCACCUAGGUCAUCGGGCG [Fam2.2 aminoacylation ribozyme variant]”, for which the self-aminoacylation in series [2] turned out to be 2.77; in series [1] it was 3.35.

Take “AUUAACCUGGUCAUCGAGUGU [Fam2.1 aminoacylation ribozyme variant]”: the figures for the self-aminoacylation in series [2] and in series [1] were 2.61 and 2.33, respectively.

As for “CCCCACUUCAAGCAAUCGUUC [Fam1B.1 aminoacylation ribozyme variant]”, the self-aminoacylation in series [2] is 0.849; in series [1] it was 0.898.

Turning to “CUACUUCAAACCAUCGGCCUG [Fam1A.1 aminoacylation ribozyme variant]”, the self-aminoacylation in series [2] came to 1.94; in series [1], 1.82.

“AUUCCCCUGGCCAUCGAGUGA [Fam2.1 aminoacylation ribozyme variant]”: the self-aminoacylation in series [2] was 4.87; in series [1], 3.34.

Regarding “CCACACUUCAAGCAAUGGGUG [Fam1B.1 aminoacylation ribozyme variant]”, the self-aminoacylation in series [1] came out at 1.74.

For “AUUCACCUUGGUCAUCGGGGG [Fam2.2 aminoacylation ribozyme variant]”, the self-aminoacylation in series [1] amounted to 1.93.

In the case of “CUACUGCAAACAAUCGGUCUU [Fam1A.1 aminoacylation ribozyme variant]”, the self-aminoacylation in series [2] came to 0.836; in series [1], 0.974.

Turning to “AUUACACUCGUCAUCGAGUGA [Fam2.1 aminoacylation ribozyme variant]”, the self-aminoacylation in series [2] is 1.91.

As for “AUUCUCCUCGGUCAUCGGGUG [Fam2.2 aminoacylation ribozyme variant]”, the self-aminoacylation in series [1] turned out to be 8.05.

Regarding “AUUCGCCUAGGUAAUCGGGUG [Fam2.2 aminoacylation ribozyme variant]”, the results for the self-aminoacylation in series [2] and in series [1] were 2.43 and 2.02, respectively.

As to “AUUCAGCUAGGUCAUCUGGUG [Fam2.2 aminoacylation ribozyme variant]”, the self-aminoacylation in series [2] is 1.67; in series [1], 1.92.

For “AUUACCCUGGUUAUCGAGUGU [Fam2.1 aminoacylation ribozyme variant]”, the self-aminoacylation in series [2] is 1.79; in series [1], 1.44.

On to “CCACACUCCAAGCAAUCGCUC [Fam1B.1 aminoacylation ribozyme variant]”, for which the self-aminoacylation in series [2] amounted to 2.56; in series [1], 1.92.

Turning to “AUUAGCCUGCUCAUCGAGUGA [Fam2.1 aminoacylation ribozyme variant]”, the self-aminoacylation in series [2] and in series [1] was 1.96 each time.

For “AUUCAACUAGGUAAUCGGGUG [Fam2.2 aminoacylation ribozyme variant]”, the self-aminoacylation in series [2] is 1.55; in series [1] it was 1.83.

Turning to “AAGUUCGCUAAUAGUCGCAAA [Fam3.1 aminoacylation ribozyme variant]”, the self-aminoacylation in series [2] worked out at 1.73.

For the sequence “AAUACCCUCGUCAUCGAGUGA [Fam2.1 aminoacylation ribozyme variant]”, the self-aminoacylation in series [2] worked out at 1.84.

Take “AUUACCCUGGUCGUCCAGUGA [Fam2.1 aminoacylation ribozyme variant]”: the self-aminoacylation in series [2] turned out to be 1.64; in series [1], 1.97.

For the sequence “AAGUUUGAUAAUAGUAGCAAG [Fam3.1 aminoacylation ribozyme variant]”, the self-aminoacylation turned out to be 0.691 in series [2] and 0.724 in series [1].
